Source: PubChem BioAssay AID602196 (INSERM, 2012)
Shown is an unselected part of about 23,000 reagents tested. Over the whole deposit, 455 (2%) got an active call. 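Active includes both protection and sensitisation; some change values fall well beyond the stated -50 to +50 range.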 The numbers tell different reagents against one gene apart. Not stated in the record: the amount of reagent.

- Purpose: 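Knock-downs that protect lung cancer cells from cisplatin or sensitise them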
- Cells: human A549 lung cancer cells
- Reagent: siRNA pair against human genes
- Time to read-out: 48 h transfection before cisplatin; time from cisplatin to read-out not stated
- Challenge: cisplatin at a dose killing half of control-siRNA cells; exact dose and duration not given
- Measured: 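Cisplatin cell death as a shift from the 50% death seen with control siRNA; siRNAs toxic or growth-blocking alone scored 0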
- Direction: two-siRNA summed score (-2 to +2): higher = both siRNAs protect from cisplatin killing; -2 means both sensitise; mean protection from cisplatin (shift in death) and protection from cisplatin (shift in death), siRNA C and protection from cisplatin (shift in death), siRNA D: higher = protection from cisplatin killing
- Active means: 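Each siRNA scores 0 if harmful alone by LDH or WST-1, otherwise +1 if it reduces and -1 if it increases cisplatin killing; a gene is active when both siRNAs agree (sum +2 or -2)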
- Calls: active = both siRNAs shift cisplatin killing the same way; inactive = no consistent shift, or siRNA harmful alone

| gene | reagent no. | two-siRNA summed score (-2 to +2) | mean protection from cisplatin (shift in death) (%) | protection from cisplatin (shift in death), siRNA C (%) | protection from cisplatin (shift in death), siRNA D (%) | Outcome |
| --- | --- | --- | --- | --- | --- | --- |
| SCGB3A2 | 1 | 0 | 2.7 | 5.5 | 0 | inactive |
| NAV2-AS5 | 1 | 1 | 11.6 | 19.7 | 3.6 | inactive |
| CCP110 | 1 | 0 | 1.5 | 2 | 1.1 | inactive |
| KIRREL3 | 1 | 0 | -0.1 | -5.3 | 5 | inactive |
| DENND2B | 1 | 0 | 10 | 5.8 | 14.2 | inactive |
| CWC22 | 1 | 0 | -2.4 | 5.3 | -10.1 | inactive |
| NPAT | 1 | 0 | -2 | 14.6 | -18.6 | inactive |
| BTF3 | 1 | 0 | 8.2 | 10.1 | 6.4 | inactive |
| LOC439993 | 1 | 0 | 0.2 | 0.6 | -0.3 | inactive |
| MMADHC | 1 | 0 | 5.9 | 14.4 | -2.6 | inactive |
| TMEFF2 | 1 | 0 | 11.6 | 9.2 | 14.1 | inactive |
| ATP5MC1 | 1 | 1 | 3 | -8.3 | 14.3 | inactive |
| LYZL6 | 1 | 0 | 7.8 | 7 | 8.5 | inactive |
| RAB37 | 1 | 0 | -6.4 | -3.1 | -9.7 | inactive |
| SPAG6 | 1 | 0 | 4.7 | 0.7 | 8.7 | inactive |
| LOC440821 | 1 | 0 | 8.7 | 8.7 | 8.6 | inactive |
| SH3RF3 | 1 | -1 | -20.1 | -16.6 | -23.5 | inactive |
| UQCRB | 1 | 0 | 6.4 | 13.1 | -0.2 | inactive |
| LOC442255 | 1 | 0 | 3.5 | -6.8 | 13.8 | inactive |
| LOC388549 | 1 | 0 | 14.1 | 17.7 | 10.6 | inactive |
| ZSCAN26 | 1 | 0 | -5.9 | -11.7 | -0.2 | inactive |
| ALG13 | 1 | 0 | 5.4 | 16.1 | -5.3 | inactive |
| ALG13 | 2 | 0 | 5.4 | 3.6 | 7.2 | inactive |
